The text below walks through data of the supplement of paper PMC4604168 (melanoma cell lines).

Test systems include MZ2-MEL; MeWo; RPMI7951; RVH-421; SkMel28; SkMel2; SkMel30; UACC62; WM115; WM1716; WM1745; WM3526; WM3619; WM451Lu.
What all share (assay): cleaved PARP positive nuclei fraction relative to DMSO control; melanoma cells; higher = more apoptosis
Common to all, as to settings: library dose: low library concentration; 72 h

This is one part of the list. Many values rest on one well or one pass, so single values are uncertain.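 Imaging used 1,536-well plates; nuclei positive for cleaved PARP by antibody were divided by total DNA-stained nuclei to yield the apoptosis fraction. Doses for screening kept most cells viable, and cell lines differ markedly in resting and induced cleaved-PARP levels.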

For the compound `CC(C)C[C@H](NC(=O)[C@H](Cc1ccccc1)NC(=O)c1cnccn1)B(O)O` [Bortezomib] + C#Cc1cccc(Nc2ncnc3cc(OCCOC)c(OCCOC)cc23)c1 [erlotinib] (first compound 0.001 µM, partner dose 0.8 µM), the “cleaved PARP positive nuclei fraction” value in the test with MZ2-MEL is 133%; in the test with MeWo, 69%; with RPMI7951, 167%; in the test on RVH-421 it was 162%; in the test with SkMel28, 314%; in the test on SkMel2, 107%. The “cleaved PARP positive nuclei fraction” value in the test with SkMel30 was found to be 115%; in the test with UACC62 it was 187%; with WM115, 93.4%; with WM1716, 216%; with WM1745, 302%; in the test on WM3526, 95.1%. Further, the “cleaved PARP positive nuclei fraction” value with WM3619 was 800%; with WM451Lu, 46.2%.
On to `C[C@@H](Oc1cc(-c2cnn(C3CCNCC3)c2)cnc1N)c1c(Cl)ccc(F)c1Cl` [Crizotinib] + O=C(O)c1ccc2c(c1)nc(Nc1cccc(Cl)c1)c1ccncc12 [CX4945] (first compound 0.2 µM, partner dose 0.4 µM), for which the “cleaved PARP positive nuclei fraction” value stood at 190% in the test with MZ2-MEL; 111% with MeWo; 130% with RPMI7951; 40.5% in the test with RVH-421; 183% in the test with SkMel28; 117% with SkMel2. Moreover, the “cleaved PARP positive nuclei fraction” value was found to be 66.6% with SkMel30; 54.2% in the test with UACC62; 270% with WM115; 70.6% in the test on WM1716; 106% with WM1745; 148% with WM3526. In addition, the “cleaved PARP positive nuclei fraction” value came out at 161% in the test with WM3619 and 73.8% with WM451Lu.
On to `Cc1cc(Nc2cc(N3CCN(C)CC3)nc(/C=C/c3ccccc3)n2)n[nH]1` + C[C@@H](Oc1cc(-c2cnn(C3CCNCC3)c2)cnc1N)c1c(Cl)ccc(F)c1Cl [Crizotinib] (first compound 0.04 µM, partner dose 0.2 µM), for which the “cleaved PARP positive nuclei fraction” value in the test on MZ2-MEL turned out to be 109%; with MeWo, 83.9%; in the test on RPMI7951 it was 150%; in the test with RVH-421, 27.4%; in the test with SkMel28, 45%; with SkMel2, 85.3%. The “cleaved PARP positive nuclei fraction” value in the test on SkMel30 is 14.6%; in the test with UACC62 it was 121%; in the test on WM115, 157%; in the test on WM1716 it was 133%; in the test with WM1745, 128%; in the test on WM3526, 49.5%. The results for the “cleaved PARP positive nuclei fraction” value in the test on WM3619 and in the test with WM451Lu were 71.7% and 58.5%, respectively.
As for `Cc1cc(Nc2cc(N3CCN(C)CC3)nc(/C=C/c3ccccc3)n2)n[nH]1` + Cn1nnc2c(C(N)=O)ncn2c1=O [temozolomide] (first compound 0.04 µM, partner dose 2 µM), the “cleaved PARP positive nuclei fraction” value in the test on MZ2-MEL amounted to 73.1%; in the test on MeWo, 183%; in the test on RPMI7951, 193%; with RVH-421 it was 169%; in the test on SkMel28, 105%; with SkMel2 it was 78.4%. The “cleaved PARP positive nuclei fraction” value in the test on SkMel30 came out at 397%; with UACC62, 75.5%; in the test with WM115 it was 145%; in the test on WM1716 it was 264%; in the test with WM1745 it was 96.6%; in the test on WM3526 it was 71.8%. Besides, the figures for the “cleaved PARP positive nuclei fraction” value with WM3619 and with WM451Lu were 240% and 132%, respectively.
As to `CNC(=O)c1cc(Oc2ccc(NC(=O)Nc3ccc(Cl)c(C(F)(F)F)c3)cc2)ccn1` [sorafenib] + C[C@]1(c2nc3c(C(N)=O)cccc3[nH]2)CCCN1 [Veliparib] (first compound 0.4 µM, partner dose 1.4 µM), the “cleaved PARP positive nuclei fraction” value in the test on MZ2-MEL came out at 61.9%; with MeWo, 34.5%; in the test with RPMI7951 it was 124%; in the test on RVH-421, 211%; with SkMel28 it was 85.7%; with SkMel2, 83.9%. Besides, the “cleaved PARP positive nuclei fraction” value worked out at 103% in the test with SkMel30; 145% in the test on UACC62; 143% in the test on WM115; 75.2% in the test on WM1716; 93.3% in the test on WM1745; 148% in the test on WM3526. In addition, the “cleaved PARP positive nuclei fraction” value with WM3619 worked out at 76.8%; in the test with WM451Lu, 80.5%.
Consider `Cc1cc(Nc2cc(N3CCN(C)CC3)nc(/C=C/c3ccccc3)n2)n[nH]1` + C=CCNC1=C2C[C@@H](C)C[C@H](OC)[C@H](O)[C@@H](C)/C=C(\C)[C@H](OC(N)=O)[C@@H](OC)/C=C\C=C(/C)C(=O)NC(=CC1=O)C2=O [Tanespimycin] (first compound 0.04 µM, partner dose 0.002 µM), for which the “cleaved PARP positive nuclei fraction” value came to 92.8% with MZ2-MEL; 96.1% with MeWo; 143% in the test with RPMI7951; 107% in the test with RVH-421; 80.8% in the test with SkMel28; 97.6% in the test with SkMel2. Besides, the “cleaved PARP positive nuclei fraction” value in the test with SkMel30 was 106%; in the test on UACC62, 48.8%; in the test with WM115, 114%; in the test on WM1716, 280%; in the test with WM1745, 93.1%; in the test with WM3526 it was 169%. Further, the “cleaved PARP positive nuclei fraction” value with WM3619 was 85.5%; in the test on WM451Lu, 77.3%.
`CC(C)C[C@H](NC(=O)[C@H](Cc1ccccc1)NC(=O)c1cnccn1)B(O)O` [Bortezomib] + C[C@]1(c2nc3c(C(N)=O)cccc3[nH]2)CCCN1 [Veliparib] (first compound 0.001 µM, partner dose 1.4 µM): the “cleaved PARP positive nuclei fraction” value in the test on MZ2-MEL came out at 145%; in the test on MeWo, 84.8%; in the test with RPMI7951, 219%; with RVH-421 it was 99.4%; with SkMel28, 71.6%; in the test on SkMel2 it was 201%. The “cleaved PARP positive nuclei fraction” value with SkMel30 was 42.9%; in the test on UACC62 it was 615%; in the test with WM115 it was 212%; with WM1716 it was 138%; in the test with WM1745, 188%; with WM3526, 39.7%. The “cleaved PARP positive nuclei fraction” value is 665% in the test with WM3619 and 116% in the test on WM451Lu.
For the compound `CS(=O)(=O)CCNCc1ccc(-c2ccc3ncnc(Nc4ccc(OCc5cccc(F)c5)c(Cl)c4)c3c2)o1` [lapatinib] + COc1ccc(Cl)c(Nc2nc3ccccc3nc2NS(=O)(=O)c2cccc(NC(=O)C(C)(C)N)c2)c1 [XL147] (first compound 0.8 µM, partner dose 0.8 µM), the “cleaved PARP positive nuclei fraction” value in the test on MZ2-MEL came to 123%; with MeWo, 128%; with RPMI7951 it was 110%; with RVH-421, 224%; in the test with SkMel28 it was 78.9%; with SkMel2 it was 72.3%. Further, the “cleaved PARP positive nuclei fraction” value in the test with SkMel30 came out at 68.7%; in the test with UACC62, 239%; with WM115 it was 116%; in the test with WM1716, 1700%; in the test on WM1745 it was 111%; in the test with WM3526, 36.7%. For the same compound, the results for the “cleaved PARP positive nuclei fraction” value in the test with WM3619 and in the test on WM451Lu were 84.6% and 45.9%, respectively.
For `O=C(O)[C@@H]1[O][Sb](=[O])([O][Sb]2(=[O])[O][C@H]([C@H](O)CO)[C@H](O)[C@H](C(=O)O)[O]2)[O][C@H]([C@H](O)CO)[C@@H]1O` (stereo not given in full) [stibogluconate] + OCc1c[nH]c2ccccc12 [Indole-3-carbinol] (first compound 2 µM, partner dose 0.8 µM), the “cleaved PARP positive nuclei fraction” value with MZ2-MEL is 328%; in the test on MeWo, 87.3%; in the test with RPMI7951 it was 85%; with RVH-421, 111%; in the test with SkMel28 it was 85.5%; in the test with SkMel2 it was 128%. Moreover, the “cleaved PARP positive nuclei fraction” value in the test with SkMel30 is 91.9%; in the test on UACC62, 114%; in the test on WM115, 54.6%; in the test on WM1716 it was 64.1%; with WM1745, 97.3%; with WM3526, 96.9%. For the same compound, the “cleaved PARP positive nuclei fraction” value came out at 92.7% in the test with WM3619 and 97.8% in the test with WM451Lu.
Regarding `Cn1c(=O)n(-c2ccc(C(C)(C)C#N)cc2)c2c3cc(-c4cnc5ccccc5c4)ccc3ncc21` + CS(=O)(=O)CCNCc1ccc(-c2ccc3ncnc(Nc4ccc(OCc5cccc(F)c5)c(Cl)c4)c3c2)o1 [lapatinib] (first compound 0.004 µM, partner dose 0.8 µM), the “cleaved PARP positive nuclei fraction” value in the test with MZ2-MEL came to 138%; in the test on MeWo, 85.3%; in the test with RPMI7951 it was 68.9%; in the test on RVH-421, 89.1%; with SkMel28 it was 150%; in the test with SkMel2 it was 71.4%. The “cleaved PARP positive nuclei fraction” value with SkMel30 turned out to be 41.3%; with UACC62, 194%; in the test with WM115, 133%; with WM1716 it was 69.6%; with WM1745, 97.3%; in the test on WM3526 it was 120%. Also, the “cleaved PARP positive nuclei fraction” value in the test with WM3619 stood at 82.9%; in the test with WM451Lu it was 87.7%.
